This passage reports binding results from paper doi:10.64898/2025.12.12.694012.

The chains behind the UniProt entries cited, without tags or fusion partners.
UniProt Q13547: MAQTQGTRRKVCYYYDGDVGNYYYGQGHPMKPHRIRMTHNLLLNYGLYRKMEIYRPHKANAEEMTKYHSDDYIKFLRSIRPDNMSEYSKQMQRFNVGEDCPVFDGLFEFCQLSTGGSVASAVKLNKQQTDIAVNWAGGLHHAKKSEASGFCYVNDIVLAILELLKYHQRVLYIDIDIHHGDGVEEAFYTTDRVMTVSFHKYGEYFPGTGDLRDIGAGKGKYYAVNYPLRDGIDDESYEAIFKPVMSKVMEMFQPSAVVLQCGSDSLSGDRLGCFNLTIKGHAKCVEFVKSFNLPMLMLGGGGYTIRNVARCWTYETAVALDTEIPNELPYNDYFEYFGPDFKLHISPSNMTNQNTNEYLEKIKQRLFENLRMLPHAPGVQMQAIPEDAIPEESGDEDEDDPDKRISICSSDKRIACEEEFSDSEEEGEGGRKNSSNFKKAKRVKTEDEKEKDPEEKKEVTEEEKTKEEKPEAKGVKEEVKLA
UniProt Q9BUI4: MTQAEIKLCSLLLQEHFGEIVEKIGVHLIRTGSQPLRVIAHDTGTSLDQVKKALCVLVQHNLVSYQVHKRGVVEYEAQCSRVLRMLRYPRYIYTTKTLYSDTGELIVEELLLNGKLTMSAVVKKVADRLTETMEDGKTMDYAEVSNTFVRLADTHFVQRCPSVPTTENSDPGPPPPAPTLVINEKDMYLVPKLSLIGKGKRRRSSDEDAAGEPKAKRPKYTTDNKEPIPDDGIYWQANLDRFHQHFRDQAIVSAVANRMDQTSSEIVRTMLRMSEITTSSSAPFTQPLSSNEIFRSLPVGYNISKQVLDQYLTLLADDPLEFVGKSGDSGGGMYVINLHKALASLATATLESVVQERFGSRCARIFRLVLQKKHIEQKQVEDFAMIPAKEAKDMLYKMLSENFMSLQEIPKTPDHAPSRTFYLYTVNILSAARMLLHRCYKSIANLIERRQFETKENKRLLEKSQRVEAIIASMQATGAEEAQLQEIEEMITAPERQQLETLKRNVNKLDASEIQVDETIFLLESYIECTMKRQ
UniProt O15318: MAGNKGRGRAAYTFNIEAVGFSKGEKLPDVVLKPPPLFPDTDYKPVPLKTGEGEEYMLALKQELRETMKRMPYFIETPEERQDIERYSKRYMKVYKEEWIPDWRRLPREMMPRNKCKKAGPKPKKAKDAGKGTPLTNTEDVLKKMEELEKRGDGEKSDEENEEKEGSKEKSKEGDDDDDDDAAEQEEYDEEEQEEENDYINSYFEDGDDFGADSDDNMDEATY

Read-outs that look alike come from different tables or passages of the source. These are yes or no findings as the source states them, for the method shown. In cells and extracts the contact can be indirect. Some binding calls cover weakened binding; strength is not graded here. For some assays here: Where a sequence is shown, tags or fusion partners need not be part of it.

What all share (assay): co-IP
Assay [1] addresses Flag-tagged NuRD subunit HDAC1 (UniProt Q13547).
Assay [2] shares this target. The source holds these as a separate data set.
Assay [3] has as its target flag-tagged RPC3 (POLR3C) (UniProt Q9BUI4).
Assay [4] concerns the target flag-tagged RPC7α (POLR3G) (UniProt O15318).
In assay [5] the target is T1, flag-tagged RPC7β (POLR3GL) (UniProt Q9BT43).
T1 sequence: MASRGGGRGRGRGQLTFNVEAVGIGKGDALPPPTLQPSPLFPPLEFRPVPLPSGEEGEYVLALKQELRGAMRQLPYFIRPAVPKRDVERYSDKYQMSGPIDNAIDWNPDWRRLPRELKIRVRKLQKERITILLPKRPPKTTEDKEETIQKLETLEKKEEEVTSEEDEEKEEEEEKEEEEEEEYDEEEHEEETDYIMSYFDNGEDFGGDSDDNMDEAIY

Turning to “RPC3 (POLR3C), endogenous (from UniProt Q9BUI4 1-534)”, the binding result in assay [1] is “binds”.

B1: RPC4 (POLR3D), endogenous (protein, UniProt P05423 1-398)
chain: MSEGNAAGEPSTPGGPRPLLTGARGLIGRRPAPPLTPGRLPSIRSRDLTLGGVKKKTFTPNIISRKIKEEPKEEVTVKKEKRERDRDRQREGHGRGRGRPEVIQSHSIFEQGPAEMMKKKGNWDKTVDVSDMGPSHIINIKKEKRETDEETKQILRMLEKDDFLDDPGLRNDTRNMPVQLPLAHSGWLFKEENDEPDVKPWLAGPKEEDMEVDIPAVKVKEEPRDEEEEAKMKAPPKAARKTPGLPKDVSVAELLRELSLTKEEELLFLQLPDTLPGQPPTQDIKPIKTEVQGEDGQVVLIKQEKDREAKLAENACTLADLTEGQVGKLLIRKSGRVQLLLGKVTLDVTMGTACSFLQELVSVGLGDSRTGEMTVLGHVKHKLVCSPDFESLLDHKHR
B1: in assay [2], the binding result is on record as “binds”.

B2: RPC2 (POLR3B), endogenous (protein, UniProt Q9NW08 1-1133)
chain: MDVLAEEFGNLTPEQLAAPIPTVEEKWRLLPAFLKVKGLVKQHIDSFNYFINVEIKKIMKANEKVTSDADPMWYLKYLNIYVGLPDVEESFNVTRPVSPHECRLRDMTYSAPITVDIEYTRGSQRIIRNALPIGRMPIMLRSSNCVLTGKTPAEFAKLNECPLDPGGYFIVKGVEKVILIQEQLSKNRIIVEADRKGAVGASVTSSTHEKKSRTNMAVKQGRFYLRHNTLSEDIPIVIIFKAMGVESDQEIVQMIGTEEHVMAAFGPSLEECQKAQIFTQMQALKYIGNKVRRQRMWGGGPKKTKIEEARELLASTILTHVPVKEFNFRAKCIYTAVMVRRVILAQGDNKVDDRDYYGNKRLELAGQLLSLLFEDLFKKFNSEMKKIADQVIPKQRAAQFDVVKHMRQDQITNGMVNAISTGNWSLKRFKMDRQGVTQVLSRLSYISALGMMTRISSQFEKTRKVSGPRSLQPSQWGMLCPSDTPEGEACGLVKNLALMTHITTDMEDGPIVKLASNLGVEDVNLLCGEELSYPNVFLVFLNGNILGVIRDHKKLVNTFRLMRRAGYINEFVSISTNLTDRCVYISSDGGRLCRPYIIVKKQKPAVTNKHMEELAQGYRNFEDFLHESLVEYLDVNEENDCNIALYEHTINKDTTHLEIEPFTLLGVCAGLIPYPHHNQSPRNTYQCAMGKQAMGTIGYNQRNRIDTLMYLLAYPQKPMVKTKTIELIEFEKLPAGQNATVAVMSYSGYDIEDALVLNKASLDRGFGRCLVYKNAKCTLKRYTNQTFDKVMGPMLDAATRKPIWRHEILDADGICSPGEKVENKQVLVNKSMPTVTQIPLEGSNVPQQPQYKDVPITYKGATDSYIEKVMISSNAEDAFLIKMLLRQTRRPEIGDKFSSRHGQKGVCGLIVPQEDMPFCDSGICPDIIMNPHGFPSRMTVGKLIELLAGKAGVLDGRFHYGTAFGGSKVKDVCEDLVRHGYNYLGKDYVTSGITGEPLEAYIYFGPVYYQKLKHMVLDKMHARARGPRAVLTRQPTEGRSRDGGLRLGEMERDCLIGYGASMLLLERLMISSDAFEVDVCGQCGLLGYSGWCHYCKSSCHVSSLRIPYACKLLFQELQSMNIIPRLKLSKYNE
Consider B2, for which the binding entry in assay [2] is recorded as “binds”.

B3: RPC5 (POLR3E), endogenous (protein, UniProt Q9NVU0 1-708)
chain: MANEEDDPVVQEIDVYLAKSLAEKLYLFQYPVRPASMTYDDIPHLSAKIKPKQQKVELEMAIDTLNPNYCRSKGEQIALNVDGACADETSTYSSKLMDKQTFCSSQTTSNTSRYAAALYRQGELHLTPLHGILQLRPSFSYLDKADAKHREREAANEAGDSSQDEAEDDVKQITVRFSRPESEQARQRRVQSYEFLQKKHAEEPWVHLHYYGLRDSRSEHERQYLLCPGSSGVENTELVKSPSEYLMMLMPPSQEEEKDKPVAPSNVLSMAQLRTLPLADQIKILMKNVKVMPFANLMSLLGPSIDSVAVLRGIQKVAMLVQGNWVVKSDILYPKDSSSPHSGVPAEVLCRGRDFVMWKFTQSRWVVRKEVATVTKLCAEDVKDFLEHMAVVRINKGWEFILPYDGEFIKKHPDVVQRQHMLWTGIQAKLEKVYNLVKETMPKKPDAQSGPAGLVCGDQRIQVAKTKAQQNHALLERELQRRKEQLRVPAVPPGVRIKEEPVSEEGEEDEEQEAEEEPMDTSPSGLHSKLANGLPLGRAAGTDSFNGHPPQGCASTPVARELKAFVEATFQRQFVLTLSELKRLFNLHLASLPPGHTLFSGISDRMLQDTVLAAGCKQILVPFPPQTAASPDEQKVFALWESGDMSDQHRQVLLEIFSKNYRVRRNMIQSRLTQECGEDLSKQEVDKVLKDCCVSYGGMWYLKGTVQS
On to B3, for which the binding result in assay [2] is “binds”.

B4: RPC1 (POLR3A), endogenous (protein, UniProt O14802 1-1390)
chain: MVKEQFRETDVAKKISHICFGMKSPEEMRQQAHIQVVSKNLYSQDNQHAPLLYGVLDHRMGTSEKDRPCETCGKNLADCLGHYGYIDLELPCFHVGYFRAVIGILQMICKTCCHIMLSQEEKKQFLDYLKRPGLTYLQKRGLKKKISDKCRKKNICHHCGAFNGTVKKCGLLKIIHEKYKTNKKVVDPIVSNFLQSFETAIEHNKEVEPLLGRAQENLNPLVVLNLFKRIPAEDVPLLLMNPEAGKPSDLILTRLLVPPLCIRPSVVSDLKSGTNEDDLTMKLTEIIFLNDVIKKHRISGAKTQMIMEDWDFLQLQCALYINSELSGIPLNMAPKKWTRGFVQRLKGKQGRFRGNLSGKRVDFSGRTVISPDPNLRIDEVAVPVHVAKILTFPEKVNKANINFLRKLVQNGPEVHPGANFIQQRHTQMKRFLKYGNREKMAQELKYGDIVERHLIDGDVVLFNRQPSLHKLSIMAHLARVKPHRTFRFNECVCTPYNADFDGDEMNLHLPQTEEAKAEALVLMGTKANLVTPRNGEPLIAAIQDFLTGAYLLTLKDTFFDRAKACQIIASILVGKDEKIKVRLPPPTILKPVTLWTGKQIFSVILRPSDDNPVRANLRTKGKQYCGKGEDLCANDSYVTIQNSELMSGSMDKGTLGSGSKNNIFYILLRDWGQNEAADAMSRLARLAPVYLSNRGFSIGIGDVTPGQGLLKAKYELLNAGYKKCDEYIEALNTGKLQQQPGCTAEETLEALILKELSVIRDHAGSACLRELDKSNSPLTMALCGSKGSFINISQMIACVGQQAISGSRVPDGFENRSLPHFEKHSKLPAAKGFVANSFYSGLTPTEFFFHTMAGREGLVDTAVKTAETGYMQRRLVKSLEDLCSQYDLTVRSSTGDIIQFIYGGDGLDPAAMEGKDEPLEFKRVLDNIKAVFPCPSEPALSKNELILTTESIMKKSEFLCCQDSFLQEIKKFIKGVSEKIKKTRDKYGINDNGTTEPRVLYQLDRITPTQVEKFLETCRDKYMRAQMEPGSAVGALCAQSIGEPGTQMTLKTFHFAGVASMNITLGVPRIKEIINASKAISTPIITAQLDKDDDADYARLVKGRIEKTLLGEISEYIEEVFLPDDCFILVKLSLERIRLLRLEVNAETVRYSICTSKLRVKPGDVAVHGEAVVCVTPRENSKSSMYYVLQFLKEDLPKVVVQGIPEVSRAVIHIDEQSGKEKYKLLVEGDNLRAVMATHGVKGTRTTSNNTYEVEKTLGIEAARTTIINEIQYTMVNHGMSIDRRHVMLLSDLMTYKGEVLGITRFGLAKMKESVLMLASFEKTADHLFDAAYFGQKDSVCGVSECIIMGIPMNIGTGLFKLLHKADRDPNPPKRPLIFDTNEFHIPLVT
In the case of B4, the binding entry in assay [3], in assay [2], in assay [4] and in assay [5] was “binds” in each case.
